Measured data: PubChem BioAssay AID1259297 (Sanger Institute, 2017)
Assay: 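Kinases whose loss kills cells on their own or with targeted drugs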 (primary screen). Cells: human RCM1 colorectal cancer cell line. Reagents: siRNA pool against human genes. Challenge: separate arms: DMSO vehicle, or one anchor drug at a mild dose: BYL719 1 µM, cetuximab 5 µg/ml, trametinib 10 nM. Detection: 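Replicate-mean well viability as a share of non-targeting pool control, a robust z-score without drug, and synergy scores for BYL719, cetuximab and trametinib arms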. Scale: viability z-score, knock-down alone: higher = more viable cells than non-targeting controls; viability, knock-down alone (DMSO): higher = more viable cells; synergy score with trametinib: higher = stronger combined killing with trametinib; synergy score with BYL719: higher = stronger combined killing with BYL719; synergy score with cetuximab: higher = stronger combined killing with cetuximab. Active means: 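Called essential if knock-down without drug gives a viability robust z-score under -3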. Calls: active = essential when knocked down alone; inactive = no clear loss of viability alone.
In all, the deposit lists 794 reagents; this is a random part of them. In the full data, 13 (1.6%) are marked active. 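Calls reflect knock-down without drug only; drug synergy is judged separately, with scores above 0.15 counted as synergy.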 Unmarked entries are inactive. Viability is capped at 1. Not given: the amount of reagent, the time to read-out.

no.	gene	viability z-score, knock-down alone	viability, knock-down alone (DMSO) (fraction of control)	synergy score with trametinib	synergy score with BYL719	synergy score with cetuximab
1	HK3 (hexokinase 3)	0.9	1	0.0791	-0.0728	-0.118
2	RPS6KA6 (ribosomal protein S6 kinase A6)	-0.307	0.888	0.0298	0.0113	-0.074
3	CDK10 (cyclin dependent kinase 10)	-0.709	0.851	0.112	0.125	0.082
4	RIPK3 (receptor interacting serine/threonine kinase 3)	-0.125	0.905	0.109	-0.0431	-0.0979
5	CNOT1 (CCR4-NOT transcription complex subunit 1)	-0.876	0.835	0.174	0.104	0.0553
6	PTPRU (protein tyrosine phosphatase receptor type U)	0.71	0.982	0.0354	0.0402	0.141

An excerpt from above, limited to “synergy score with cetuximab”.
RPS6KA6 (ribosomal protein S6 kinase A6) = -0.074
CDK10 (cyclin dependent kinase 10) = 0.082

Additional reagents follow:
no.	gene	viability z-score, knock-down alone	viability, knock-down alone (DMSO) (fraction of control)	synergy score with trametinib	synergy score with BYL719	synergy score with cetuximab
7	PRKX (protein kinase cAMP-dependent X-linked catalytic subunit)	0.851	0.995	0.13	-0.0771	-0.122
8	TEK (TEK receptor tyrosine kinase)	0.0358	0.92	0.0273	-0.147	-0.189
9	ULK3 (unc-51 like kinase 3)	0.89	0.999	0.0197	-0.0135	-0.119
10	CKS2 (CDC28 protein kinase regulatory subunit 2)	0.186	0.934	0.0125	-0.124	-0.177
11	CDK19 (cyclin dependent kinase 19)	-1.18	0.806	-0.0181	-0.252	-0.289
12	MYLK2 (myosin light chain kinase 2)	-0.948	0.828	0.14	-0.0197	0.0495
13	PSKH2 (protein serine kinase H2)	-0.476	0.872	0.105	-0.0613	0.0841
14	FN1 (fibronectin 1)	0.9	1	0.0537	-0.0314	-0.118
15	MAPK7 (mitogen-activated protein kinase 7)	0.9	1	-0.189	-0.00376	-0.118
16	DLG1 (discs large MAGUK scaffold protein 1)	-0.442	0.875	-0.022	0.0759	0.00111
17	STK4 (serine/threonine kinase 4)	0.9	1	-0.0814	0.0182	-0.118
18	PIK3R4 (phosphoinositide-3-kinase regulatory subunit 4)	0.634	0.975	0.104	0.0313	0.0204
19	PSKH1 (protein serine kinase H1)	0.9	1	-0.00859	-0.0423	-0.118
20	PRKCB (protein kinase C beta)	-1.34	0.792	-0.0387	0.0452	0.0173
